## Results of single-concentration screens

By UniProt entry, the sequences of proteins in these tests, tags left out. Residues count along the entry.
UniProt P9WFT3, whole entry: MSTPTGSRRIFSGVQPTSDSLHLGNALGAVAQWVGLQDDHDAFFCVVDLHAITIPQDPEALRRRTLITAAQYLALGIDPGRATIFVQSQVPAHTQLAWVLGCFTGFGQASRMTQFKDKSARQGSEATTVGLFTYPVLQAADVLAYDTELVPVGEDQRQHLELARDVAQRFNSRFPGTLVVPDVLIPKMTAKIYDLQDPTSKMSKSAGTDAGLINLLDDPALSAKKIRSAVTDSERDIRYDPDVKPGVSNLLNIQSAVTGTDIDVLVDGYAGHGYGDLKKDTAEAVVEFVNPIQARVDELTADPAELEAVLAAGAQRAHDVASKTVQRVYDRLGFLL
UniProt Q8IDJ8, 1-583: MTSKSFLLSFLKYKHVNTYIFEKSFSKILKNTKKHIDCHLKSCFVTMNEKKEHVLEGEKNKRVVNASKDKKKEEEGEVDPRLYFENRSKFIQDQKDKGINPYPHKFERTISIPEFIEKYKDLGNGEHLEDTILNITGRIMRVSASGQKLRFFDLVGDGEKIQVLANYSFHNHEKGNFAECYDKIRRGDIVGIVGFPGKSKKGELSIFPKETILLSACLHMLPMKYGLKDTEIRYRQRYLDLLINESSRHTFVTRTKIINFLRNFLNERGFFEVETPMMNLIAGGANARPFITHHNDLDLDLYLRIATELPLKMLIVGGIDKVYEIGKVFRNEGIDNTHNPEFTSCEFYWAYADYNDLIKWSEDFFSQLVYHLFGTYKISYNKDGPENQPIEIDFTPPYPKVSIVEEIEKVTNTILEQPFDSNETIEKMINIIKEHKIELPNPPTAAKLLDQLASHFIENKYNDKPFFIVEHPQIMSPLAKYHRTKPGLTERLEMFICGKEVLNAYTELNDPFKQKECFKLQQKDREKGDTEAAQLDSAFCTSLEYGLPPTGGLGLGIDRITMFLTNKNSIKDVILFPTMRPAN
UniProt P9WPC5, whole entry: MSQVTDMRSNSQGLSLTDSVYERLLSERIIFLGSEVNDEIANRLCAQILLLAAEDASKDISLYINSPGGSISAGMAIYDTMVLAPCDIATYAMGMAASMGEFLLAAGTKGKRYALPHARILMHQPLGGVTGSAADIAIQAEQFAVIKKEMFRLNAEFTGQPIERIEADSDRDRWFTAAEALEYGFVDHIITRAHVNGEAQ
UniProt P9WPC3, whole entry partner: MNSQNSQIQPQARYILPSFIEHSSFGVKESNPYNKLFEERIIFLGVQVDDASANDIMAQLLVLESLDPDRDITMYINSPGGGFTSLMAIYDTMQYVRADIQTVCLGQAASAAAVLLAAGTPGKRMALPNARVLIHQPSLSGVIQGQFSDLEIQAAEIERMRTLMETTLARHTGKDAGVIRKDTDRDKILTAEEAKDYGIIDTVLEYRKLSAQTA

Each number is a percent effect as filed.
How 0% and 100% were set is not recorded. Most values in the screen are low, and negative values occur.
Compounds were drawn at random from those tested, without regard to their results.
A dash means the value is not listed here; it may have been measured.

MtTrpRS: 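Tryptophan-tRNA ligase, Mycobacterium tuberculosis (UniProt P9WFT3). Enzyme assay of tryptophanyl-tRNA synthetase; the read-out is not stated. Compounds at 10 µM. Higher most likely means stronger inhibition; the record gives no direction and few retests gave an IC50. Of about 65,000 compounds tested this way, about 64 (0.098%) reached 50% or more in at least one test.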
PfKRS1: 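Enzyme assay of the cytosolic lysyl-tRNA synthetase in 384-well plates, read by luminescence. Target: Lysine-tRNA ligase, Plasmodium falciparum 3D7 (UniProt Q8IDJ8). Concentration: 30 µM. Direction is inferred from only a few compounds that gave an IC50; most scored high, so higher reads as stronger inhibition. Of about 69,000 compounds tested this way, about 49 (0.071%) reached 50% or more in at least one test.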
ClpP1P2: 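ClpP1P2, Mycobacterium tuberculosis (UniProt P9WPC5 and UniProt P9WPC3). Protease assay of ClpP1P2, read by the AMC dye that it sets free. Compounds at 50 µM. Direction is inferred from only a few compounds that gave an IC50; most scored high, so higher reads as stronger inhibition. Most other retested compounds had strongly negative values. Size under these conditions: about 69,000 compounds, about 10 of them at 50% or above in at least one test.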

| # | compound | MtTrpRS | PfKRS1 | ClpP1P2 |
|---|---|---|---|---|
| 1 | `Cc1cnn(CC2CN(Cc3cccc(OCC(N)=O)c3)CCO2)c1` (stereo not drawn) | -2.158 | 7.269 | -13.53 |
| 2 | `CC(C)c1nc(C2CCCN2C(=O)c2ccc(N(C)C)nn2)no1` (stereo not drawn) | 0.8746 | -0.6726 | 16.61 |
| 3 | `COCC(=O)N1CC[C@H]2[C@H]1CCN2CC(C)C` | -6.695 | 7.189 | 0.2869 |
| 4 | `N#Cc1ccc(OCC(O)CN2CCN(c3nccs3)CC2)cc1` (stereo not drawn) | -2.1 | 8.623 | 10.92 |
| 5 | `CC(C)c1nnc(CN(C)C(c2ccc(F)cc2)c2cccnc2)o1` (stereo not drawn) | -6.058 | 3.042 | -3.906 |
| 6 | `CCc1ccc(CNc2cc(-c3ccoc3C)nn2CCO)o1` | 0.3734 | 1.962 | -2.703 |
| 7 | `Cc1ccnn1C(C)C(=O)Nc1cc(-c2ccncc2)[nH]n1` (stereo not drawn) | -0.09911 | 4.404 | -3.832 |
| 8 | `Cc1ccc(C(=O)N2CCCN(C)c3ccc(F)cc32)o1` | 3.226 | 0.8293 | -7.511 |
| 9 | `Cc1cnn(CC2CCCN2C(=O)c2cc(C)nc3[nH]nc(C)c23)c1` (stereo not drawn) | 0.3975 | 0.5627 | -21.23 |
| 10 | `Cc1ccc(CN2CCN(CC(=O)Nc3ccc4nsnc4c3)CC2)o1` | -3.964 | -1.468 | -10.24 |
| 11 | `Cc1nn(C)c2c(N3CCN(C(=O)c4ccccc4)CC3)ncnc12` | -1.809 | 4.257 | 3.745 |
| 12 | `O=C(NCCN1CCCCC1)c1ccoc1` | 1.101 | -8.916 | 0.1215 |
| 13 | `Cc1ccc2c(c1)[C@@H](CC(=O)N1CCN(C)CC1)CCO2` | - | 0.3654 | -1.647 |
| 14 | `CN(C)c1nc(N)nc(CN2CCCC2c2ccsc2)n1` (stereo not drawn) | 3.231 | 1.491 | -1.998 |
| 15 | `CCNC(=O)c1nnc2ccc(N3CCOCC3)cc2n1` | -8.442 | -0.1516 | 15.88 |
| 16 | `CC1CN(CC(=O)N2CCOCC2)CCN1Cc1nccn1C` (stereo not drawn) | 3 | 0.5951 | -22.66 |
| 17 | `COc1cccnc1NC(=O)c1ccc(COCC(F)(F)F)cc1` | -2.016 | 1.165 | 21.51 |
| 18 | `CC(C)N(CCO)C(=O)C1CCC(=O)N(CCc2cccc(F)c2)C1` (stereo not drawn) | -1.652 | -0.9356 | -6.079 |
| 19 | `CNc1nccnc1C1CCN(C(C)C)CC1` | - | 4.204 | -3.726 |
| 20 | `Cc1cc(C(=O)NC2=NCCS2)c(C)n1-c1ccccn1` | -2.333 | 1.103 | -8.363 |
| 21 | `CC(C)N1CCCn2nc(C(=O)NCCc3c[nH]cn3)cc2C1` | 0.6721 | 2.547 | 2.471 |
| 22 | `CCc1ccc(S(=O)(=O)NCCC(O)c2ccoc2)s1` (stereo not drawn) | 4.079 | 0.2131 | -18.54 |
| 23 | `Cc1n[nH]cc1CNCC(O)c1ccc(F)c(F)c1` (stereo not drawn) | 0.3812 | 3.676 | 6.934 |
| 24 | `Cc1nn(C)c2nc(O)cc(C(F)(F)C(F)(F)F)c12` | -0.4955 | 1.013 | -7.032 |
| 25 | `CCC1(C(=O)O)CCCN(C(=O)c2ccc(O)c(Cl)c2)C1` (stereo not drawn) | 2.886 | 1.015 | -4.998 |
| 26 | `Cc1nc(N2CCCCC2)ncc1-c1cc(O)nc(N2CCCCC2)n1` | -1.166 | 2.147 | -14.09 |
| 27 | `Cc1ccc(N2CC[C@H]3O[C@@H](C(=O)N4CCCCO4)CC[C@H]32)nn1` | - | 1.702 | -4.662 |
| 28 | `O=C(NC[C@H]1OC[C@@H](NC2CCOCC2)[C@@H]1O)Nc1ccccc1` | 4.628 | 0.02522 | -5.235 |
| 29 | `FC(F)(F)c1ccnc(N2CCCN(C3CCOCC3)CC2)c1` | -0.8738 | 5.245 | 4.061 |
| 30 | `O=C1CC2(CCCNC2)C(=O)N1Cc1ccc(F)cc1` (stereo not drawn) | -0.229 | 2.856 | -0.4368 |
| 31 | `O=C(Cc1ccccn1)N1CCn2cc(Cn3cncn3)nc2C1` | 15.71 | 2.639 | -10.43 |
| 32 | `CCN(CC(=O)NC(C)C)C(=O)C(C)(C)c1ccc2c(c1)OCCO2` | 3.096 | 5.019 | -2.153 |
| 33 | `Cc1cnn(C2CN(CC(=O)NCc3ccccn3)C2)c1` | 3.606 | -0.8618 | 10.28 |
| 34 | `NC(=O)CN1CCCN(C(=O)CCOc2ccccc2Cl)CC1` | 0.4585 | 0.4473 | -12.31 |
| 35 | `CC(C)N(C)C(=O)C1CCC2(CCNCC2)O1` (stereo not drawn) | -0.7273 | 2.767 | 1.433 |
| 36 | `CCCc1noc(CNc2ccc(C(=O)N3CCCC3)cc2C)n1` | -2.726 | -0.8151 | -4.275 |
| 37 | `O=c1[nH][nH]cc1-c1ccnc(NCCc2cccc(O)c2)n1` | - | 5.404 | 3.481 |
| 38 | `COCCN1Cc2ccccc2C2(CCN(S(C)(=O)=O)CC2)C1` | -6.294 | 2.642 | -9.469 |
| 39 | `CNc1cc(-c2cc(OC)c(OC)c(OC)c2)ncn1` | - | 1.252 | 2.252 |
| 40 | `CC(C)n1ncc2c1NC(=O)C(C#N)C21CCCCC1` (stereo not drawn) | 0.1211 | 2.911 | -3.012 |
| 41 | `Cc1nnc(CN2CCCC2c2ccc(C(C)(C)C)cc2)o1` (stereo not drawn) | -1.419 | 3.01 | -0.3121 |
| 42 | `Cc1ccc(C(=O)O)cc1S(=O)(=O)Nc1nn(-c2ccccc2)cc1C` | -0.784 | 7.268 | 1.018 |
| 43 | `Cc1ccc(C)c(C(NC2CCCC2)c2cccnc2)c1` (stereo not drawn) | 1.065 | 3.062 | -6.447 |
| 44 | `CNC(=O)[C@@H]1CN(Cc2ccccc2)C[C@H]1C(=O)c1ccc(F)cc1` | -1.371 | 1.557 | -18.64 |
| 45 | `c1cnn(CC2CN(CCc3ccncc3)CCO2)c1` (stereo not drawn) | -5.708 | 2.033 | 11.57 |
| 46 | `O=C(c1ccc(Cl)s1)N1CCCn2nc(CN3CC[C@H](F)C3)cc2C1` | -2.251 | 2.647 | -0.6381 |
| 47 | `CS(=O)(=O)NC1CCN(C(=O)NCCc2ccccc2F)CC1` | -1.652 | 3.837 | 2.404 |
| 48 | `Cc1cnn(C2CCCN(C(=O)c3cc(C)sc3C)C2)c1` (stereo not drawn) | -2.436 | 1.497 | -2.905 |
| 49 | `CC(NCc1ccc(F)cc1)c1ccc(OCC(=O)NC2CC2)cc1` (stereo not drawn) | -3.801 | -3.533 | 11.7 |
| 50 | `CNC(=O)c1sc2ccccc2c1C1CCN(c2nc(C)cc(C)n2)C1` (stereo not drawn) | -4.631 | 2.146 | -9.064 |
| 51 | `CCn1cnnc1CCNC(=O)C(C)(C)c1cccc(Cl)c1` | -3.753 | 4.588 | -2.746 |
| 52 | `Cn1ccc(C(=O)N2CCN(c3ccccn3)CC2)cc1=O` | -7.592 | 4.269 | -1.415 |
| 53 | `Cc1nccc(C2CN(S(=O)(=O)N(C)C)C2)n1` | -11.91 | 0.876 | -7.977 |
| 54 | `O=C(c1ccc(C2CCCN2)s1)N1CCN(C(=O)N2CCOCC2)CC1` (stereo not drawn) | -2.344 | 0.4894 | -2.888 |
| 55 | `O=C(Cc1ccsc1)N1C[C@@H]2CN(Cc3ccoc3)CCO[C@@H]2C1` | -3.749 | -5.297 | 7.694 |
| 56 | `COCCCNC(=O)COc1ccccc1C(F)(F)F` | -3.271 | 5.431 | 5 |
| 57 | `COCCC1(C(=O)O)CCCN(CCOCc2ccccc2)C1` (stereo not drawn) | 0.4566 | -0.02376 | -13.85 |

Measurements from “University of Dundee, Small-Polar-MMV Screening Library” (2021), ChEMBL document CHEMBL3988442.